Assay results from patent JP2018158894A.
No constants are given. Whether binding was seen depends on the method and setting. Binding can be weak; no strength is given.

Tests used:
[1] = biological target: LGR6 486-527 recombinant fragment (pET32b tag fusion); test: Ag-ELISA, 50 ng fragment per well, m164 at 1 μg/ml
[2] = biological target: LGR6 486-527 recombinant fragment (pET32b tag fusion); test: Ag-ELISA on recombinant fragments, absorbance minus blank (legend of Figure 2)

B1: m164抗体 (anti-LGR6 mouse monoclonal antibody produced by hybridoma clone 164) (antibody, V domains shown)
VH: EVQLQQSGPELVKPGASVKISCKTSGYTFTEYTMHWVKQSHGKSLEWIGGINPYNRVSSYNQRFKGKATLTVDKSSSTAYMELRSLTSEDSAVYYCARRYDVFDSWGQGTTLTVSS
VL: DIVMSQSPSSLAVSVGEKVSMSCKSSQSLLYSSNQKNYLAWYQQKPGQSPKLLISWASTRESGVPARFTGSGSGTDFTLTISSVRAEDLAVYYCQQHFNYPYTFGGGAKLEMK
Question: B1 was tested. Which binding [1] did it give?
Answer: binds

Question: And the binding [2]?
Answer: binds
